Measured values from publication PMC7797037.
Results are given in words; binding and its absence hold for the method and conditions named. In cells and extracts the contact can be indirect. A yes stands for co-enrichment or nearness to the bait. Other partners may have been found. A no says only that the protein was not detected with the bait. Where a sequence is shown, tags or fusion partners need not be part of it.

Protein sequences, listed by entry. Tags and fused reporters are not part of them.
UniProt A4D1E9: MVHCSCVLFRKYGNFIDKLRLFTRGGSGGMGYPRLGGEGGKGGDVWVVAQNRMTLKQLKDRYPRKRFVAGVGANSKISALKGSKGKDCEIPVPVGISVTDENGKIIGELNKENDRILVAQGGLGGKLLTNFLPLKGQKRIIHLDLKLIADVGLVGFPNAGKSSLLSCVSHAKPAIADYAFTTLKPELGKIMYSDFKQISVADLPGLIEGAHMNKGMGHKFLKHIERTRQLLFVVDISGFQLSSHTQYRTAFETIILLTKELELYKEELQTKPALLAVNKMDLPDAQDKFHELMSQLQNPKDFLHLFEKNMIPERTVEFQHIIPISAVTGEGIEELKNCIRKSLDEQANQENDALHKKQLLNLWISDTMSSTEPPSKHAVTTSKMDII

Biological target: T1, GTPBP5::FLAG (C-terminal FLAG-tagged GTPBP5) (human) (UniProt Q9H4K7)
T1 sequence: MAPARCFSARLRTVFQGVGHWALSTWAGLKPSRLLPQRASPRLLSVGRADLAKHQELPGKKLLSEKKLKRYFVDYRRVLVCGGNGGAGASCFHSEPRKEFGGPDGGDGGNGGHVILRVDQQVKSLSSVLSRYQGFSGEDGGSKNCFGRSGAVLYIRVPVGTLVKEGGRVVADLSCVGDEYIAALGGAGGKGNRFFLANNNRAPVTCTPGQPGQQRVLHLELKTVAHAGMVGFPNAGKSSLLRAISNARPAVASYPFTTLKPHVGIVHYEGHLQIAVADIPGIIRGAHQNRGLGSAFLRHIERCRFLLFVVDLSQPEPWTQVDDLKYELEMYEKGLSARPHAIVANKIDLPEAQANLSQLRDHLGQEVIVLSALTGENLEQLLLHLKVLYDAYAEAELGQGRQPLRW
Assay: affinity purification with mass spectrometry; FLAG-IP from lysate of mitochondria isolated from HEK293T expressing GTPBP5::FLAG (48 h), buffers with 5 mM MgCl2, elution with 3X FLAG peptide; label-free quantitative mass spectrometry against control HEK293T without FLAG protein, n = 3

Row | Substance | binding
1 | GTPBP10 (endogenous) (from UniProt A4D1E9 1-387) | no binding
2 | MTG1 (GTPBP7) (human (endogenous in HEK293T)) | binds
3 | bL36m (human (endogenous in HEK293T)) | no binding
